These are yes or no findings as the source states them, for the method shown. In cells and extracts the contact can be indirect. Some results given as binding are weak or reduced against the parent protein; the word gives no strength. Sequences can lack the tags named with a protein.
Molecular target: T1, mBarhl1-Myc (mouse BarH-like 1 homeobox protein, Myc-tagged) (mouse) (UniProt P63157)
T1 sequence: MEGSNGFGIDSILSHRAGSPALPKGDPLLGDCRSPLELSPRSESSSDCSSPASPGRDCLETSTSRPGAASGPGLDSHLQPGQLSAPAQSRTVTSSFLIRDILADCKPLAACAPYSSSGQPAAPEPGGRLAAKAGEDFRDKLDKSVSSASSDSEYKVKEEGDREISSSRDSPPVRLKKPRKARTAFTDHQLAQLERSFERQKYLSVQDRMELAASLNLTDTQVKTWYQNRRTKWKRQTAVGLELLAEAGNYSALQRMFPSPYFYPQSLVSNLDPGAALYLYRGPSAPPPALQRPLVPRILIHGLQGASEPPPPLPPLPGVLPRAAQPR
Test: co-IP

Amino acid sequences for entries named in this document (tags omitted).
UniProt O42478: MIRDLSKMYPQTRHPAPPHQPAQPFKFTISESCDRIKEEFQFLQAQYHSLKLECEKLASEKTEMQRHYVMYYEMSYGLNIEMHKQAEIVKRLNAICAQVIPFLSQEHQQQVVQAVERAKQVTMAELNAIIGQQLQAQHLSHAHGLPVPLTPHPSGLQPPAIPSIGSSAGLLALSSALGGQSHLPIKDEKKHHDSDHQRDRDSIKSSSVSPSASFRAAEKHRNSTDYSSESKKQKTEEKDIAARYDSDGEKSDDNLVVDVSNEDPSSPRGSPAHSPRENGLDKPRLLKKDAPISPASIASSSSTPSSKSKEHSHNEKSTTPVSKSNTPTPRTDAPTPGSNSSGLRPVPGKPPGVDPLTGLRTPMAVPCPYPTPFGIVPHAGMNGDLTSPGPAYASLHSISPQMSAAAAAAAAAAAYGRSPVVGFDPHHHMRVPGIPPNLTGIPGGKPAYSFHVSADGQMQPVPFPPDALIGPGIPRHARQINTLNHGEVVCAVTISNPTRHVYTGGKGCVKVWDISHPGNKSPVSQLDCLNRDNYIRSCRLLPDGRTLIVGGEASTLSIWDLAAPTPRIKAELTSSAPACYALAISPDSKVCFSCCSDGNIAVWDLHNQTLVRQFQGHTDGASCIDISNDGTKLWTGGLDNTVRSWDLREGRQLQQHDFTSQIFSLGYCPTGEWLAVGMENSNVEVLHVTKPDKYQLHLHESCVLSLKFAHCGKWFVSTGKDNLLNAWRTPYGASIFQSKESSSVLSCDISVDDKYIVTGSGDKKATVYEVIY

binding: binds
Substance: Groucho 4 (Gro4), tagged (from UniProt O42478 1-772)

Source: article doi:10.1101/2023.05.25.542248
